Test results from paper PMC7819943, “Rice protein-binding microarrays: a tool to detect cis-acting elements near promoter regions in rice”.
The list shows a part of the results.

Molecular target: T1, OsSMF1 (Oryza sativa, UniProt Q6ZLB0 1-436)
T1 sequence: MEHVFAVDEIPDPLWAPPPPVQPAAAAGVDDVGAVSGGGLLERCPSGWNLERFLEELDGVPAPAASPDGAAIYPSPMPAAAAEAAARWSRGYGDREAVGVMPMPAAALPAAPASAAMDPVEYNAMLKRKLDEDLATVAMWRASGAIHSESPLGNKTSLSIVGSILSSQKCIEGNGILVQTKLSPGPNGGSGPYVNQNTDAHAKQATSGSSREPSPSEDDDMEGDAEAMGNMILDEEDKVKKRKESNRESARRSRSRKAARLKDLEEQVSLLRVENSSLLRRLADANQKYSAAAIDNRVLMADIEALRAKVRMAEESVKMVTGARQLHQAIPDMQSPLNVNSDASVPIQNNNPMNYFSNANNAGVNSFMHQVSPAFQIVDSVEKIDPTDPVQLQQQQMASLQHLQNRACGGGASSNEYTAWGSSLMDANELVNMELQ
Assay: protein-binding microarray (RPBM); PBS, 2% BSA, 51.3 ng/ul salmon testes DNA, 50 uM zinc acetate, 200 nM TF, 25 C, 1 h; high values mean tight binding
Conditions: protein: recombinant; tags: N-terminal polyhistidine and DsRed monomer fusion (pET32a); chain copies: 2; label: CyDye5-dUTP incorporated in the synthesized complementary strand; 3' TTTTT single-stranded linker to array surface; dsDNA, one strand shown
How it was run: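 In PBS with 2% BSA, salmon testes DNA and 50 µM zinc acetate, 200 nM protein was incubated on a custom Agilent array at 25 °C for 1 h and then washed off. The array had been made double-stranded by primer extension with Cy5-dUTP and blocked with 2% BSA. The proteins were transcription factors fused N-terminally to polyhistidine and DsRed, expressed in E. coli BL21-CodonPlus and purified on Ni–NTA. The binding signal is per-feature fluorescence intensity (arbitrary units) from an Axon 4000B scanner.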

Sequence | binding signal
TTCCTTAGCTCATGTCAGCACAGCAACTACCTGTAACCTGCGGAGTCACCTAGTGCAG | 4240 fluorescence intensity (a.u.)
TATGCATTTTAAGAGTTTAGGGAACTAGATGACACACATCCGGAGTCACCTAGTGCAG | 3970 fluorescence intensity (a.u.)
TCCCTCCGCCGACGGCTCCCTCCTCTCCCACGTCCGCGCACGGAGTCACCTAGTGCAG | 3970 fluorescence intensity (a.u.)
CGTCTCGCCGGAGCGTTGACGAGGACCTCTCTACTCTTCACGGAGTCACCTAGTGCAG | 3680 fluorescence intensity (a.u.)
TATAGCAAAGAAAAGTAAAATAAGAGGCATGAGCTCACGCCGGAGTCACCTAGTGCAG | 37800 fluorescence intensity (a.u.)
GCGCATTGGCGAGGACTGCGACTATCTGGGAAGCGTGAAGCGGAGTCACCTAGTGCAG | 51500 fluorescence intensity (a.u.)
TTTCTCCACGTCAGCGAAACCACCTATATATATACTGCCACGGAGTCACCTAGTGCAG | 14300 fluorescence intensity (a.u.)
TTAAATTAGCGTCCAAACATTCGATGTGACATGGACTAAGCGGAGTCACCTAGTGCAG | 4160 fluorescence intensity (a.u.)
ATATGTACGTTGGATAAGTTTGATGACGTGACATACACATCGGAGTCACCTAGTGCAG | 6160 fluorescence intensity (a.u.)
CGGCCTCGCCGTGGACGTCACCGTCCCCAACGCCGACGTTCGGAGTCACCTAGTGCAG | 3450 fluorescence intensity (a.u.)
GGGGTGGCGGTGGCGGTGGTGGTGGTGGTGGTGGTGGAGTCGGAGTCACCTAGTGCAG | 6290 fluorescence intensity (a.u.)
ACACGAGGACGCTGGTGACTGGTCACCGGGCCCCACTTTGCGGAGTCACCTAGTGCAG | 4190 fluorescence intensity (a.u.)
ACCAGGGCACGAGACCGTGGTGCCACGTGTCGGCATCGGCCGGAGTCACCTAGTGCAG | 17900 fluorescence intensity (a.u.)
TCCACACTCATATATACACGTGGCGGTGGTGTGGTGTGGACGGAGTCACCTAGTGCAG | 29000 fluorescence intensity (a.u.)
CGCGTGAATTAGCATTTCTGCGTGCACCAGGCCTAATTTCCGGAGTCACCTAGTGCAG | 3150 fluorescence intensity (a.u.)
GGCAGAAAACGGCTGCCTGCTACGTCACGTACTCGCGTGGCGGAGTCACCTAGTGCAG | 16300 fluorescence intensity (a.u.)
GACGCTCCGGATCAATCCACGTTGGCATGGCTTCCCCGCACGGAGTCACCTAGTGCAG | 17700 fluorescence intensity (a.u.)
TTTCTACGCAGCACAATTAACTCAACTTAAGCAAAAGCCGCGGAGTCACCTAGTGCAG | 32100 fluorescence intensity (a.u.)
GCTTCAAAGATTCGTCACGCAATTTCCTGGCGAATTGTGTCGGAGTCACCTAGTGCAG | 4270 fluorescence intensity (a.u.)
ATGTACACCATCAAGTCAGGAGGAGAAATCCCCTTCCACGCGGAGTCACCTAGTGCAG | 3390 fluorescence intensity (a.u.)
CTCTAATATGCAAGTTCGTGTGACTTACACGTATAGCATCCGGAGTCACCTAGTGCAG | 5020 fluorescence intensity (a.u.)
CTCTCTCTCTCCTCTCCGCCGGTGACGCCGGCATTTATAGCGGAGTCACCTAGTGCAG | 4720 fluorescence intensity (a.u.)
GGTCGATGATGATGATGACGACGACGAGAGGAGGAGAGATCGGAGTCACCTAGTGCAG | 3820 fluorescence intensity (a.u.)
AAGCAAAAGAGTGGCACCTACGGGCACGGCCATGGCTGTGCGGAGTCACCTAGTGCAG | 3140 fluorescence intensity (a.u.)
GGGCCCAATGACAGACTTAGTAAGGCCGTGCGTTACCTCGCGGAGTCACCTAGTGCAG | 35200 fluorescence intensity (a.u.)
CCCCTCCGAATCAAACGTGGCGGCTGACGACCTTCCTTGTCGGAGTCACCTAGTGCAG | 9350 fluorescence intensity (a.u.)
ATTGTCTCCCTCGACTTGCCCTGTTGTCCACGTTGACTCGCGGAGTCACCTAGTGCAG | 7350 fluorescence intensity (a.u.)

Copied from the list:
binding signal, TTTCTACGCAGCACAATTAACTCAACTTAAGCAAAAGCCGCGGAGTCACCTAGTGCAG reads 32100 fluorescence intensity (a.u.)
binding signal, GACGCTCCGGATCAATCCACGTTGGCATGGCTTCCCCGCACGGAGTCACCTAGTGCAG reads 17700 fluorescence intensity (a.u.)
binding signal, ACCAGGGCACGAGACCGTGGTGCCACGTGTCGGCATCGGCCGGAGTCACCTAGTGCAG reads 17900 fluorescence intensity (a.u.)

Continued:

Sequence | binding signal
CACGGGTCACCGAGCTTGCATTGTCATGTAGTAGTAGGTGCGGAGTCACCTAGTGCAG | 35000 fluorescence intensity (a.u.)
GAGGCAGCGAGCCCATCTACGTCATCCACAACGTTGTATGCGGAGTCACCTAGTGCAG | 9270 fluorescence intensity (a.u.)
ATCCAAGAGTGTTGTGGGACTGACATTTGGCTTAATTCTGCGGAGTCACCTAGTGCAG | 4020 fluorescence intensity (a.u.)
GGTGATTTTATATATATTCACGCATTTCGTGGACCTTCTTCGGAGTCACCTAGTGCAG | 3210 fluorescence intensity (a.u.)
TGCCTTTGATTAATGTCATGATGTCACATGCTGAGATTCACGGAGTCACCTAGTGCAG | 8320 fluorescence intensity (a.u.)
TCTCCCCTACTCATTGTCGGCTGACCTGGAGGTTGCGTTGCGGAGTCACCTAGTGCAG | 8240 fluorescence intensity (a.u.)
CAGGCCGGAAACCGGCCGAGCCCACCCATTAGAAAGGACGCGGAGTCACCTAGTGCAG | 22900 fluorescence intensity (a.u.)
AGGGGAAAGGTATGGAAATGACCACCATCATCACCAACTACGGAGTCACCTAGTGCAG | 3950 fluorescence intensity (a.u.)
TCCTCCTCCGCCGCCGCCGCCGCCATCATCGTCGTCGTCGCGGAGTCACCTAGTGCAG | 3270 fluorescence intensity (a.u.)
AGCAATTTGGCCGCCTGACCCCGTGCCGACGTGGCCCGGCCGGAGTCACCTAGTGCAG | 13500 fluorescence intensity (a.u.)
TAGCTAACGTGGCGTATACGTGGCTCATTTAACGAGGTCTCGGAGTCACCTAGTGCAG | 12400 fluorescence intensity (a.u.)
CGGTGCTGAGTCGTCATCAGTTGATGTTCTCACGAATTCGCGGAGTCACCTAGTGCAG | 5100 fluorescence intensity (a.u.)
CGTCCCCTGCTTTTGACGTGGCATCCACCTTTGAGCTCTCCGGAGTCACCTAGTGCAG | 18300 fluorescence intensity (a.u.)
CCCAAAGCTGACGTACAGCACCGACCCGGTCGGCTGCTCGCGGAGTCACCTAGTGCAG | 4200 fluorescence intensity (a.u.)
GATCGATAGTTGCACGTTCTGACACATGTCATCTGTACCGCGGAGTCACCTAGTGCAG | 8110 fluorescence intensity (a.u.)
TAGATAGATGCATATTGGGTGCTGGATTTCTTGTGATTTCCGGAGTCACCTAGTGCAG | 23000 fluorescence intensity (a.u.)
TCGTCCTCCGCCGCCGGACACGTTGTCGTCGAAAGCGTCACGGAGTCACCTAGTGCAG | 4840 fluorescence intensity (a.u.)
TAATATTTCCTTTCCATTTCACACGTCACAATCCCGTGGGCGGAGTCACCTAGTGCAG | 14600 fluorescence intensity (a.u.)
CTCCCGCGCGCCGCCGCCTGCTAGTCCCGGAGACACGCGGCGGAGTCACCTAGTGCAG | 3480 fluorescence intensity (a.u.)
AATTAACTGTATCTGAACATGAAAGCACTACCATACGTCACGGAGTCACCTAGTGCAG | 4350 fluorescence intensity (a.u.)
TATAGCCGCCCAAGTTATATACAAATGCATGCATGTCATGCGGAGTCACCTAGTGCAG | 3170 fluorescence intensity (a.u.)
AACTCCAATCTGCGGACGGTACTGGGCCCACGTGTAGACGCGGAGTCACCTAGTGCAG | 3660 fluorescence intensity (a.u.)
AGGCCCGCACCCGCTGTCACCGCCGCCCACAGCTTCGCCCCGGAGTCACCTAGTGCAG | 3400 fluorescence intensity (a.u.)
ATCGCCTCGCCGCGGCGACGTCCGCGTGGATTCGCGGTGACGGAGTCACCTAGTGCAG | 3640 fluorescence intensity (a.u.)
GCTCCCCGGTCTCCGCCGCCGTTCTCTGACATGCCATGCCCGGAGTCACCTAGTGCAG | 3200 fluorescence intensity (a.u.)
CGTCCTCCTTGGTGACCAGGTTGGGGAAGAGGCGCGTCAGCGGAGTCACCTAGTGCAG | 3520 fluorescence intensity (a.u.)
TCCCCGCGCCTACGTGTGCGCCATCGCCTACCGCATTCAGCGGAGTCACCTAGTGCAG | 9510 fluorescence intensity (a.u.)
